Consider 1 molecule from article PMC12527946.

This assay addresses T1, Clu-Δ(214–238) (tail mutant TL1) (human), P10909.
T1 chain: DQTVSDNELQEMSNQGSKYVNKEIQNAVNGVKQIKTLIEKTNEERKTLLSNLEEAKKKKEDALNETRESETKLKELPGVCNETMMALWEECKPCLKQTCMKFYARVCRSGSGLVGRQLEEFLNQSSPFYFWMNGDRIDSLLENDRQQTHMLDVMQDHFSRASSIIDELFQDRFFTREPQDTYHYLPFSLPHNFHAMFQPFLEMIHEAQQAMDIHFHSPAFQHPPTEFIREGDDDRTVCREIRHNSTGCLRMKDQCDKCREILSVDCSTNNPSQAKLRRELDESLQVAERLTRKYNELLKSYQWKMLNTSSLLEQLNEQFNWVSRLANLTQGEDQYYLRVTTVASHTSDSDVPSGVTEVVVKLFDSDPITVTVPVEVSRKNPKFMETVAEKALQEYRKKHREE
As to the kind of experiment: SEC; 10 μM Clu in 20 mM MES-NaOH pH 6.5, HEPES-NaOH pH 7.5 or Tris-HCl pH 8.5, 100 mM NaCl, 1 mM EDTA, overnight or longer on ice; Superdex-200 Increase 3.2/300 at room temperature; monomers and dimers; both purified. The following applies: remark: other sources report otherwise.

These are yes or no findings as the source states them, for the method shown. Some entries that bind do so weakly or less than the wild type.

B1: Clu-Δ(214–238) (tail mutant TL1), P10909 (protein)
chain: DQTVSDNELQEMSNQGSKYVNKEIQNAVNGVKQIKTLIEKTNEERKTLLSNLEEAKKKKEDALNETRESETKLKELPGVCNETMMALWEECKPCLKQTCMKFYARVCRSGSGLVGRQLEEFLNQSSPFYFWMNGDRIDSLLENDRQQTHMLDVMQDHFSRASSIIDELFQDRFFTREPQDTYHYLPFSLPHNFHAMFQPFLEMIHEAQQAMDIHFHSPAFQHPPTEFIREGDDDRTVCREIRHNSTGCLRMKDQCDKCREILSVDCSTNNPSQAKLRRELDESLQVAERLTRKYNELLKSYQWKMLNTSSLLEQLNEQFNWVSRLANLTQGEDQYYLRVTTVASHTSDSDVPSGVTEVVVKLFDSDPITVTVPVEVSRKNPKFMETVAEKALQEYRKKHREE
modifications: here or on the partner: N-glycans at N86, N103, N145, N291, N354 and N374; N-glycans at N86, N103, N145, N291, N354 and N374
Take B1: the binding result is listed as “binds”.
